In publication PMC11963297:
No constants are given. Whether binding was seen depends on the method and setting. Binding seen in cells or lysates may run through a third protein. Some entries that bind do so weakly or less than the wild type. For some assays here: Where a sequence is shown, tags or fusion partners need not be part of it.

Amino acid sequences for entries named in this document (tags omitted).
UniProt Q9BSJ2: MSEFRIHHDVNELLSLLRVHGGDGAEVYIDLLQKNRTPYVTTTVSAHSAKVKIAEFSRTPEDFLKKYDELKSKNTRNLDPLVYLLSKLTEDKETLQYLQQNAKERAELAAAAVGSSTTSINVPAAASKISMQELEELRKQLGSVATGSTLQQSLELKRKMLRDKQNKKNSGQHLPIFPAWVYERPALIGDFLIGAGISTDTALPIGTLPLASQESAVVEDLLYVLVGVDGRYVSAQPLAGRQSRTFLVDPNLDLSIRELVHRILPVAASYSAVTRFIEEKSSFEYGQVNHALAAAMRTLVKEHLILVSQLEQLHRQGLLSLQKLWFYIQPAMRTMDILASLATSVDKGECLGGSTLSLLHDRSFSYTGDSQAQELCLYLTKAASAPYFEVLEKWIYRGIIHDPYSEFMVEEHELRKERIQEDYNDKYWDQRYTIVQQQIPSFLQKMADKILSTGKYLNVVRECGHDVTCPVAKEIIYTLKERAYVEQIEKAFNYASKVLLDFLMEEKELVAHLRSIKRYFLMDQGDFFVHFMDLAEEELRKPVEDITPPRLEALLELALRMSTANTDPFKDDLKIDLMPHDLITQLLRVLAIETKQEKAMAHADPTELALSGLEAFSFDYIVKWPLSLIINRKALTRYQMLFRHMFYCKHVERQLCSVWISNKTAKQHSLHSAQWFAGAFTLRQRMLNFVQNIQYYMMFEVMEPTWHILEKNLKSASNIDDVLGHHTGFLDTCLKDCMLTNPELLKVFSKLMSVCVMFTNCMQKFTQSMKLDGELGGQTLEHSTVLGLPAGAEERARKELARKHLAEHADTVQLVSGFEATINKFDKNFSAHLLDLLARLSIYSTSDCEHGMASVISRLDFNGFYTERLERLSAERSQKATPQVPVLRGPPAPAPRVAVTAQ
UniProt Q9UGJ1: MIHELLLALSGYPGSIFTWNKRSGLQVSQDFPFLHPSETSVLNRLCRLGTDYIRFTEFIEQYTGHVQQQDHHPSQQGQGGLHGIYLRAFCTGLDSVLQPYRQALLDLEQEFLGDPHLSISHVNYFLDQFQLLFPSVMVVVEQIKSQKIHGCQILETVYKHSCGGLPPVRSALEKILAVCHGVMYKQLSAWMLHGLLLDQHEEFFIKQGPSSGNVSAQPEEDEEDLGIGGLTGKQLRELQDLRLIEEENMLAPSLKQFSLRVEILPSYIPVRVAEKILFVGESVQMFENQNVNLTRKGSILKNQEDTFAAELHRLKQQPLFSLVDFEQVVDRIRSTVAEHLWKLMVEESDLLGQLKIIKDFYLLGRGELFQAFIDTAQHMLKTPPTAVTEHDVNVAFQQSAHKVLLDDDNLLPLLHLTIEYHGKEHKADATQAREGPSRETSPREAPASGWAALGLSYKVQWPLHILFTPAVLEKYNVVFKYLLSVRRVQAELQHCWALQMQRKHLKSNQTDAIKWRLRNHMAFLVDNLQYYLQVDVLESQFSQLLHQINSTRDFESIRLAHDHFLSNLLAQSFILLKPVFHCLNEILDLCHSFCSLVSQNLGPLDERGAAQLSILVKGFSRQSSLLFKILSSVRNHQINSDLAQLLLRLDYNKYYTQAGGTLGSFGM

Key:
[1] = biological target: T1, C-terminally mNeonGreen-tagged human GIT1, transcript variant 1 (GIT1-NG) (human) (UniProt Q9Y2X7); experiment: co-IP; whole-cell extracts of cells expressing GIT1-NG, GIT2-NG or NG alone; precipitation with anti-NG Ab or, reciprocally, anti-γ-tubulin Ab on protein A beads; immunoblot
T1 sequence: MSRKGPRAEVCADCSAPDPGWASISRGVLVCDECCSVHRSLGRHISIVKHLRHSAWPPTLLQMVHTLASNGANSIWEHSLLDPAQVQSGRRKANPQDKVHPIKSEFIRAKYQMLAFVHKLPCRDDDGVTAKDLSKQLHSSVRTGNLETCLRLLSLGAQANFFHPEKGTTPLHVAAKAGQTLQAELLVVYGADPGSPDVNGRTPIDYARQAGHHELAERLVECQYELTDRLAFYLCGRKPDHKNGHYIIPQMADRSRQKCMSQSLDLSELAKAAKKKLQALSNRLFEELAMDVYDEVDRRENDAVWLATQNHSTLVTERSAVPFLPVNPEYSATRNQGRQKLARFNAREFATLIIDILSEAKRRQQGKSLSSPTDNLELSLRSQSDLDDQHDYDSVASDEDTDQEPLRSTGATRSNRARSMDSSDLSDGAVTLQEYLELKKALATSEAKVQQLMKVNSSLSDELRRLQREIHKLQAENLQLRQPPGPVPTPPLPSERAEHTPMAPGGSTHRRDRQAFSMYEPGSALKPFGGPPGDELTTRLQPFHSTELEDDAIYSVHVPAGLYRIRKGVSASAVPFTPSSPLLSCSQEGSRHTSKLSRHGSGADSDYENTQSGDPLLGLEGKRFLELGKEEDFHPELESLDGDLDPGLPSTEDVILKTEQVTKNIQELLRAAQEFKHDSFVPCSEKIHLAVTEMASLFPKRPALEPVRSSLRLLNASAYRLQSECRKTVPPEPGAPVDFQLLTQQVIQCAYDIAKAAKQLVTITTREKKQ

[2] = biological target: T2, C-terminally mNeonGreen-tagged human GIT2, transcript variant 1 (GIT2-NG) (human) (UniProt Q14161); experiment: as above
T2 sequence: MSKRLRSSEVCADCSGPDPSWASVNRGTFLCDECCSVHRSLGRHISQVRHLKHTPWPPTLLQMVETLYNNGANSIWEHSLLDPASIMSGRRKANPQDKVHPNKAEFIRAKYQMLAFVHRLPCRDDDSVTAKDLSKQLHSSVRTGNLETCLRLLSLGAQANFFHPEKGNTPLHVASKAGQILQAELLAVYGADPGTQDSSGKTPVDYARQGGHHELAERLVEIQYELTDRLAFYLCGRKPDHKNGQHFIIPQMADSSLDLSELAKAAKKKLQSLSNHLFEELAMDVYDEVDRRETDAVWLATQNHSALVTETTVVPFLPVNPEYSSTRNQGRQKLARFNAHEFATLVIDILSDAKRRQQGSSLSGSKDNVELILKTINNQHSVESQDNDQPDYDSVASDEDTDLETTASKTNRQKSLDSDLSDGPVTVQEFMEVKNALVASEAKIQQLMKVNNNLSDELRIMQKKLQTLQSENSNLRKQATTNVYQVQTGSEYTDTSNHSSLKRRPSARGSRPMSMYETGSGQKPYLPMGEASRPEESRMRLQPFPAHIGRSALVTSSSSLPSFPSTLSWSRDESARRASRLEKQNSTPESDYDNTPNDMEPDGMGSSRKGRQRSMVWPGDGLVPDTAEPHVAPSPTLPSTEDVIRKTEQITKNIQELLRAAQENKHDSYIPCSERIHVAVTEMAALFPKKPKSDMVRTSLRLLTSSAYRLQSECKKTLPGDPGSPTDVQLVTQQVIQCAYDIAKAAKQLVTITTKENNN

[3] = biological target: T3, N-terminally GST-tagged full-length human GIT1 (GST-GIT1) (human) (UniProt Q9Y2X7); experiment: pull-down; GST-fusion proteins or GST alone immobilised on Glutathione-Sepharose and incubated with whole-cell extracts of U-251 MG cells; immunoblot; only the target purified
T3 sequence: T1 sequence

[4] = biological target: T4, N-terminally GST-tagged full-length human GIT2 (tv1) (GST-GIT2) (human) (UniProt Q14161); experiment: as above
T4 sequence: T2 sequence

[5] = biological target: T5, G protein-coupled receptor kinase-interacting protein 1 (GIT1), endogenous (human (endogenous in U-251 MG)) (UniProt Q9Y2X7); experiment: co-IP; whole-cell extracts of U-251 MG cells (HEPES buffer with 1% NP-40, protease and phosphatase inhibitors) incubated with protein A beads preloaded with rabbit Ab to GIT1, GIT2 or PKCα or mAb TU-31 to γ-tubulin; immunoblot; endogenous proteins
T5 sequence: T1 sequence

[6] = biological target: T6, G protein-coupled receptor kinase-interacting protein 2 (GIT2), endogenous (human (endogenous in U-251 MG)) (UniProt Q14161); experiment: as above
T6 sequence: T2 sequence

[7] = biological target: T7, GST-tagged N-terminal ArfGAP domain of human GIT2, residues 1-124 (GST-GIT2(1-124)) (human) (UniProt Q14161); experiment: pull-down; GST-fusion proteins or GST alone immobilised on Glutathione-Sepharose and incubated with whole-cell extracts of U-251 MG cells; immunoblot; only the target purified
T7 sequence: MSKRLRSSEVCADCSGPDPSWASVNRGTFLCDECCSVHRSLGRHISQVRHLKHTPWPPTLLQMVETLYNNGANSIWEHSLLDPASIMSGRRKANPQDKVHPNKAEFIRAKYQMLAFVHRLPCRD

[8] = biological target: protein kinase C alpha (PKCα), endogenous (human (endogenous in U-251 MG)) (UniProt P17252); experiment: co-IP; whole-cell extracts of U-251 MG cells (HEPES buffer with 1% NP-40, protease and phosphatase inhibitors) incubated with protein A beads preloaded with rabbit Ab to GIT1, GIT2 or PKCα or mAb TU-31 to γ-tubulin; immunoblot; endogenous proteins

Measured: binding

γ-tubulin complex protein 2 (GCP2), endogenous (from UniProt Q9BSJ2 1-902)
not listed: [7] | [8]
binds: all other assays above

γ-tubulin complex protein 4 (GCP4), endogenous (from UniProt Q9UGJ1 1-667)
not listed: [7] | [8]
binds: all other assays above

protein kinase C alpha (PKCα), endogenous (from UniProt P17252 1-672) (enzyme)
binds: [7]

B1: G protein-coupled receptor kinase-interacting protein 2 (GIT2), endogenous (protein, UniProt Q14161 1-759)
chain: T2 sequence
binds: [8]
